Source: patent publication US20200277268A1, “PENTAFLUOROPHENYL SULFONAMIDE COMPOUNDS, COMPOSITIONS AND USES THEREOF” (DALRIADA THERAPEUTICS INC., priority 2017, published 2020)

Tests used:
Format in all cases: cell-based
[1] = test system: U118MG; test: Cell viability, glioblastoma U118MG; details: Homo sapiens, U-118-MG; glioblastoma cell line
Method: (§1) The anti-cancer efficacy of exemplary compounds of the application were assessed in vitro against different cancer cell lines. Cell viability was examined following treatment at various concentrations of inhibitor (0.097656-50 μM) using a CellTiter-Blue® cell viability assay. 1×10^4 cells/well were plated in 96-well assay plates in culture medium. All cells were grown in DMEM, IMDM and RPMI-1640 supplemented with 10% fetal bovine serum (FBS). In some instances, FBS was removed for periods ranging from 16-24 hours, and re-introduced with test compound addition. After 24 hrs, test compounds and vehicle controls were added to appropriate wells such that the final volume was 100 μl in each well. The cells were cultured for the desired test exposure period (72 hours) at 37° C. and 5% CO2. The assay plates were removed from […] incubator and 20 μl/well of CellTiter-Blue® Reagent was added. The plates were incubated using standard cell culture conditions for 1-4 hours. Afterwards, the plates were shaken for 10 seconds and florescence was recorded at 560/590 nm using a Cytation 3 spectrophotometer. IC50 values were determined using non-linear regression analysis with GraphPad Prism 6.0 (GraphPad Software Inc.). […]

[2] = test system: A-172; test: Cell viability, glioblastoma A-172; details: Homo sapiens, glioblastoma cell line
Method: as §1

[3] = test system: U87MG; test: Cell viability, glioblastoma U87MG; details: Homo sapiens, U-87 MG; glioblastoma cell line
Method: as §1

IC50 [1]: 14 µM
IC50 [2]: 16.2 µM
IC50 [3]: 15.1 µM
Structure (SMILES): CC/C(=C(\c1ccccc1)c1ccc(OCCN(C)C)cc1)c1ccccc1 [Tamoxifen, reference compound]
